Measured values taken from US20220220216A1.
These are yes or no findings as the source states them, for the method shown. Some binding calls cover weakened binding; strength is not graded here.

Sequences of proteins named here, by UniProt entry; tags and fusion partners are left off. Residues count along the entry.
UniProt P51654, residues 25-559: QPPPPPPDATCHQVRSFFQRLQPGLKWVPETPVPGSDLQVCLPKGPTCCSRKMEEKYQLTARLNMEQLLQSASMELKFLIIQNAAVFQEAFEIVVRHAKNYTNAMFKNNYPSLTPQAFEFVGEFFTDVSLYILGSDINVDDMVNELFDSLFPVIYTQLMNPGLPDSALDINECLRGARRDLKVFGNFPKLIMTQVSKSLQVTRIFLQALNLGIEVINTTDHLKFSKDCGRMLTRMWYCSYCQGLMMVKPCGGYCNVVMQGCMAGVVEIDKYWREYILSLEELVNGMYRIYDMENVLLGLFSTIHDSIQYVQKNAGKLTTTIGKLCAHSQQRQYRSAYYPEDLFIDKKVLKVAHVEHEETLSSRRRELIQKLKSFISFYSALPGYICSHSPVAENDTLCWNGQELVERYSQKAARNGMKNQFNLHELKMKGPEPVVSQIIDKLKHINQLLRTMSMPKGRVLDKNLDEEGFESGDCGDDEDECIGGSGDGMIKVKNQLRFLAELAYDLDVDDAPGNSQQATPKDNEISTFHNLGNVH

Legend:
[1] = biological target: Human GPC3-His (manufactured by ACROBiosystems, Inc.) (human) (UniProt P51654); assay: SPR (Biacore T100)
[2] = biological target: Human GPC3-His (manufactured by ACROBiosystems, Inc.) (human) (UniProt P51654); assay: SPR (Biacore T100), antibody captured on anti-human IgG, antigen as analyte, single cycle kinetics

B1: conventional anti-GPC3 antibody HN3 (IgG4PE R409K) (antibody, V domains shown)
VH: QVQLVQSGGGLVQPGGSLRLSCAASYFDFDSYEMSWVRQAPGKGLEWIGSIYHSGSTYYNPSLKSRVTISRDNSKNTLYLQMNTLRAEDTATYYCARVNMDRFDYWGQGTLVTVSS
B1 was tested, and the binding [1] was “binds” and the binding [2] was “binds”.
